Laboratory results published in the supplement of paper PMC12823440, “Inhibitors supercharge kinase turnover through native proteolytic circuits” (Nature, 2025).
The list shows a part of the results. The calls rarely recur for the same compound in another form.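 In K562 cells expressing nanoluciferase-fused kinases, luminescence was recorded at 4 h intervals between 2 and 18 h, normalized as percent of control with DMSO at 100% and a positive control at 0%. A significant (2 sigma) signal drop marks a time point as decreased. The authors' rule for a hit is not shown and takes in more than the number of time points.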

Sequences of proteins named here, by UniProt entry; tags and fusion partners are left off. A change or cut given only in a name is not applied to a line headed by its entry.
UniProt O15530: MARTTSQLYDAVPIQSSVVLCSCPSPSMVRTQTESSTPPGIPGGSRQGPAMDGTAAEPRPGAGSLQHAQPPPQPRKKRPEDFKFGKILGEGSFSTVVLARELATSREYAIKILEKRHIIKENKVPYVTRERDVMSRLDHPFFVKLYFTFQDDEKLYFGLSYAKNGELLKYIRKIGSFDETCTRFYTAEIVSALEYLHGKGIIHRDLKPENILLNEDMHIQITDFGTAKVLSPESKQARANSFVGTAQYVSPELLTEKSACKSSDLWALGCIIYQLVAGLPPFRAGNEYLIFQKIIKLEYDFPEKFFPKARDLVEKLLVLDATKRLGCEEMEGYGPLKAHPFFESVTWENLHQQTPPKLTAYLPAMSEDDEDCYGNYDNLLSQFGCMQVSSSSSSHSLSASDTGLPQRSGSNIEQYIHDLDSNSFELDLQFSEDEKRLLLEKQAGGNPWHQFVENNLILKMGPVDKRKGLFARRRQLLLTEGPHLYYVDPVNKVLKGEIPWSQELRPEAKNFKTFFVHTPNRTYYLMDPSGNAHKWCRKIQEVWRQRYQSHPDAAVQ
UniProt P53350, whole entry: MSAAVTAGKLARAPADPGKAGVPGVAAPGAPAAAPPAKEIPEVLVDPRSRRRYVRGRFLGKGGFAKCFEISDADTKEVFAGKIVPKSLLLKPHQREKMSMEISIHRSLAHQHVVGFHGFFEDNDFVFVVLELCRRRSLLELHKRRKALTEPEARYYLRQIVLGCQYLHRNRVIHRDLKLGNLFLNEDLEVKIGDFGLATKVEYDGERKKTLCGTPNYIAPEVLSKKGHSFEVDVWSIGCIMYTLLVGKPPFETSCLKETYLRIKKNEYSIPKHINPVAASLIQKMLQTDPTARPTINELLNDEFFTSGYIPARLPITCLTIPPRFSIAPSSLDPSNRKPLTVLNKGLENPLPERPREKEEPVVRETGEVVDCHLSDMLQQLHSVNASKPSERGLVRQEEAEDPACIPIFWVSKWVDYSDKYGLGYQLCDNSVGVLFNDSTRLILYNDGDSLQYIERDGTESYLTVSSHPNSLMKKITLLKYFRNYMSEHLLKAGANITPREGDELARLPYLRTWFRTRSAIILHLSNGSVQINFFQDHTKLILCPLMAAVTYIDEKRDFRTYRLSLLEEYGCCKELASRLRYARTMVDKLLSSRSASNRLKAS
UniProt Q05397, whole entry, looked up: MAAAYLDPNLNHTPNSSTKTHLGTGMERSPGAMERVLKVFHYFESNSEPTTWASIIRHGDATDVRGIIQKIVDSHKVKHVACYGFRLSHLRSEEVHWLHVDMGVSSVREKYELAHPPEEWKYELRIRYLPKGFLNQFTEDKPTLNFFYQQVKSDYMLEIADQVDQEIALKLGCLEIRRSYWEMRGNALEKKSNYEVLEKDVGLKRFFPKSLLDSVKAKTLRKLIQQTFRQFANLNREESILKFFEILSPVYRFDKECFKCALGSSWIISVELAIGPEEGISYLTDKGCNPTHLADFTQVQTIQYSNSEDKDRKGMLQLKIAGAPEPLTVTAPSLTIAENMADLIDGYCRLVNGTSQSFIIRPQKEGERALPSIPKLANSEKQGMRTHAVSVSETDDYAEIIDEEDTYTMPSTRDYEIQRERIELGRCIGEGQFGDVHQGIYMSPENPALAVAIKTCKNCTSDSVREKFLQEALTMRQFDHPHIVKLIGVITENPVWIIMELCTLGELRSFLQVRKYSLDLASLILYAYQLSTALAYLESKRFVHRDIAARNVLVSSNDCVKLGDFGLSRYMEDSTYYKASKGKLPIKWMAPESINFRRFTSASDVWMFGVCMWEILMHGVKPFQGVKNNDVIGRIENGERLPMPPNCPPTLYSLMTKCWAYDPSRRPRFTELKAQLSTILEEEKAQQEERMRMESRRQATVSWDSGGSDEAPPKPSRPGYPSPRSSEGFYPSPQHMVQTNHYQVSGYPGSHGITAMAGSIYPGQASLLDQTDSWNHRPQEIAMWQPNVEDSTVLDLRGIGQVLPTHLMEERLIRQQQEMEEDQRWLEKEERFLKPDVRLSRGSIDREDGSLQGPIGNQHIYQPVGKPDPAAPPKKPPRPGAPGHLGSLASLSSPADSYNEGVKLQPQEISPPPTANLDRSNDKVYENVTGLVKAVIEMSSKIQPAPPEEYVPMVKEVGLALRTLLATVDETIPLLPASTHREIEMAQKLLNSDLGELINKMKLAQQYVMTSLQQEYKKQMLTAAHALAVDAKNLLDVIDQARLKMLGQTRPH
UniProt P07949, whole entry, looked up: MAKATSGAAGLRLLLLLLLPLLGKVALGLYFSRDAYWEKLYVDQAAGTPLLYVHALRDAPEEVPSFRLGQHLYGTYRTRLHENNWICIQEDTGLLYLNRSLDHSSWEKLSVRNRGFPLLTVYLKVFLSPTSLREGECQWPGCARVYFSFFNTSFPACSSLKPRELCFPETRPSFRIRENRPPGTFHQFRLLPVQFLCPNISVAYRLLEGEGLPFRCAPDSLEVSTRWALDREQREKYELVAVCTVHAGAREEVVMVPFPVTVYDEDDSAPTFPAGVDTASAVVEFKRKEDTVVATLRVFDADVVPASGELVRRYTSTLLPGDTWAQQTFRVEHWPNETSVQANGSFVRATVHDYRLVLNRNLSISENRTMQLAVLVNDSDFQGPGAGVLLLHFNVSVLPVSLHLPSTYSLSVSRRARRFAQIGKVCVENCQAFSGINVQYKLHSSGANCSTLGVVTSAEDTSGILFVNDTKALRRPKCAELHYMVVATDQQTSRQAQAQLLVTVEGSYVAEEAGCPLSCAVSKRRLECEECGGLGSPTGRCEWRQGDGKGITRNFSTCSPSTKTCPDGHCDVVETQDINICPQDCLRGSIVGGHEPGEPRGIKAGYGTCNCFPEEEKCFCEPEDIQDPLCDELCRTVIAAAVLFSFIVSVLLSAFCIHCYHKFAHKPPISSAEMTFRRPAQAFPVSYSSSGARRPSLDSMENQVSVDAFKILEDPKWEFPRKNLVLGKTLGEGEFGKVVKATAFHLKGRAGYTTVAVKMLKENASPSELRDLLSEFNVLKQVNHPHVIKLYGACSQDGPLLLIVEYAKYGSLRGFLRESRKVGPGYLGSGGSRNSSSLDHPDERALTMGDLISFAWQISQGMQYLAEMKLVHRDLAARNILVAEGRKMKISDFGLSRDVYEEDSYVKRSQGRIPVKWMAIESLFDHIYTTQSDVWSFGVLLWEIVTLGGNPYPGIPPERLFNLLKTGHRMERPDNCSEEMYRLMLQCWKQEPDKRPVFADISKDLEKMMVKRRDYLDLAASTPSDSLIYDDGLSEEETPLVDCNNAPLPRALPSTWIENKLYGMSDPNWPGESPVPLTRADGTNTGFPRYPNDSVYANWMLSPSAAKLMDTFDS
UniProt P07949, whole entry M918T, looked up: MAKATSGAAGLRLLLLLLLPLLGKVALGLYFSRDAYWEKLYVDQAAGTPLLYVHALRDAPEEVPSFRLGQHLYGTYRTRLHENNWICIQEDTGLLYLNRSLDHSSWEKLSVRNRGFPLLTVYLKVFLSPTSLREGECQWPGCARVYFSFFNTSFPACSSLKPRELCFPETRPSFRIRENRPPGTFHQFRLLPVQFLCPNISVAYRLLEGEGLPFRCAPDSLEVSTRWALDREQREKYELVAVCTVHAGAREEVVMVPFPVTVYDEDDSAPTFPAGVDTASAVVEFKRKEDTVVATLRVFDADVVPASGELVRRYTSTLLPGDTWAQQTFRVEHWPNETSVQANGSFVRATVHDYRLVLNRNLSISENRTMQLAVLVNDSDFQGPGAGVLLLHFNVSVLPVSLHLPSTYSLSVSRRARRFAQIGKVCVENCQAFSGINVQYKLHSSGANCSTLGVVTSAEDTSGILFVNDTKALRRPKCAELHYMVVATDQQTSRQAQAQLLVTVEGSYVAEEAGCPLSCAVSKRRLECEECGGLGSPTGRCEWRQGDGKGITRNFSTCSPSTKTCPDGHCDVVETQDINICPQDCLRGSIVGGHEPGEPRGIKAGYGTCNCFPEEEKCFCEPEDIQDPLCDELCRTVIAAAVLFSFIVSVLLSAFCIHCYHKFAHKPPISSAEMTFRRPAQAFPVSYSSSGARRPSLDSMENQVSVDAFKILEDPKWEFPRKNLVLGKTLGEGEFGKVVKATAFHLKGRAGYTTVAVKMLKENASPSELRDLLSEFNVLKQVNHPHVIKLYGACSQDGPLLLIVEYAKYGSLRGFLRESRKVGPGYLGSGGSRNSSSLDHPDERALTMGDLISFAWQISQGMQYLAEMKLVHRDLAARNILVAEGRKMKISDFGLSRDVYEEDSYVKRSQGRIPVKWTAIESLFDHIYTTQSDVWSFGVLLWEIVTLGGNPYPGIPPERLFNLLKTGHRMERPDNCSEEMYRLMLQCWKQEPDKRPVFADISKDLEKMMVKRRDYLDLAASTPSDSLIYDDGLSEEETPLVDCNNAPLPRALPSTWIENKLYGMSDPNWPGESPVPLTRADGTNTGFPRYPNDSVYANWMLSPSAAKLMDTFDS
UniProt Q9BRS2: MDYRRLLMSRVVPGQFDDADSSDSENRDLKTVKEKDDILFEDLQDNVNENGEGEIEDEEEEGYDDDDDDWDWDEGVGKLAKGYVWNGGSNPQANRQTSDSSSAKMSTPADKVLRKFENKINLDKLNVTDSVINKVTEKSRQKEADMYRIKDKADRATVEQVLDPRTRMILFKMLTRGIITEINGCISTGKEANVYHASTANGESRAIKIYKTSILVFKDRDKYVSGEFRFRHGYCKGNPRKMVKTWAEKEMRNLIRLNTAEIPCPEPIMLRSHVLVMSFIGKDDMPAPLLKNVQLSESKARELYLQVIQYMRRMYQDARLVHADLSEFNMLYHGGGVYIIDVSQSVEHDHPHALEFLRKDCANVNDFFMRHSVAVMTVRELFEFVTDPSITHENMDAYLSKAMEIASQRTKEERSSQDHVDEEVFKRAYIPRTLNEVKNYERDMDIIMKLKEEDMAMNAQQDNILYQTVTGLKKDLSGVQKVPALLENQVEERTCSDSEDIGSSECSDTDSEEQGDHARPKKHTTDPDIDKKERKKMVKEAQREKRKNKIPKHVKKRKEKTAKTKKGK
UniProt Q15418, whole entry: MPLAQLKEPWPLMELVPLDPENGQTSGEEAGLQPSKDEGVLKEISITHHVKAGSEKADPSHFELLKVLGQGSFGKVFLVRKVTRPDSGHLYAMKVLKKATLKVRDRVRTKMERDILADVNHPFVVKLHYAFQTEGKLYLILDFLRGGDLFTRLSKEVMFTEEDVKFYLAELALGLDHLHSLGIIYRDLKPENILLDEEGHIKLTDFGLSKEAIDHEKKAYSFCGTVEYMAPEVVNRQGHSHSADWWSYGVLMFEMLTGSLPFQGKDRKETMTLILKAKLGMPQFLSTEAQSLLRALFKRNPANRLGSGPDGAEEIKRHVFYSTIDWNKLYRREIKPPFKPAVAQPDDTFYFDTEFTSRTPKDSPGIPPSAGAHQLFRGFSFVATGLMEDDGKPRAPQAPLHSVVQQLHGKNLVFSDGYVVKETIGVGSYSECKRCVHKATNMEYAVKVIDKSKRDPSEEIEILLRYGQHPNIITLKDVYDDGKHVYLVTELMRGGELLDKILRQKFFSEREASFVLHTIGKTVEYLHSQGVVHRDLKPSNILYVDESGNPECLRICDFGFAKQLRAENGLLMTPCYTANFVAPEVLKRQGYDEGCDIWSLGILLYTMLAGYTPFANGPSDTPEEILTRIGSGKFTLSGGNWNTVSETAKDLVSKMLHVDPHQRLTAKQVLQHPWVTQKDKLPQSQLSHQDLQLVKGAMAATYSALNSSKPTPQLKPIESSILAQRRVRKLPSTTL
UniProt Q9NYA1, whole entry: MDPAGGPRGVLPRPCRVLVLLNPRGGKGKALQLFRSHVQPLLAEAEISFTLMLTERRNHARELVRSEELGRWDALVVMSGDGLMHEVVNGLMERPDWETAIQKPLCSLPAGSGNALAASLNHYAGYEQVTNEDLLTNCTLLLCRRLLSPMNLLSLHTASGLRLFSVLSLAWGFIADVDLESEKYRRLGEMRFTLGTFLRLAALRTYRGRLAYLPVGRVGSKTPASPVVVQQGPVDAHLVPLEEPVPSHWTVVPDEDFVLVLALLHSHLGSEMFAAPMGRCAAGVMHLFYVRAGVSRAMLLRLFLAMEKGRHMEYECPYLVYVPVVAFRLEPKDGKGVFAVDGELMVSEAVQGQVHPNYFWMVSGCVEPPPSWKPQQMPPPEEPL
UniProt Q9Y6E0: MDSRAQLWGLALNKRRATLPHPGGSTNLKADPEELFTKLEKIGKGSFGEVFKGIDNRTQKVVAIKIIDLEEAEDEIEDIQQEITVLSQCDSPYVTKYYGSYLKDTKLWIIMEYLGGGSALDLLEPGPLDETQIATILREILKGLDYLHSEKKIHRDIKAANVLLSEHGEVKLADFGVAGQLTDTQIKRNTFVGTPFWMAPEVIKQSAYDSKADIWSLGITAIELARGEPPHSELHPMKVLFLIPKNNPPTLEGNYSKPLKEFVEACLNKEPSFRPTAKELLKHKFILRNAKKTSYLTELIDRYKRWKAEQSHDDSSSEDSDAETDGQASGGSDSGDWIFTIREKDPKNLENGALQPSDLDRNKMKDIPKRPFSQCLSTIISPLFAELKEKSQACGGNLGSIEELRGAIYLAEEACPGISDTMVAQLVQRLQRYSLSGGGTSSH

What was measured:
Assay in all cases: kinase-Nluc reporter destabilization hit call (1 = scored as downregulated) (binary); higher = compound decreases kinase abundance
Conditions in all cases: K562; 2-18 h
PDPK1 = PDPK1 (UniProt O15530)
PIK4CA = PIK4CA (UniProt P42356)
PIK4CB = PIK4CB (UniProt Q9UBF8)
PLK1 = PLK1 (UniProt P53350)
PRKAA1 = PRKAA1 (UniProt Q13131)
PRKCA = PRKCA (UniProt P17252)
PTK2 = PTK2 (UniProt Q05397)
PTK2B = PTK2B (UniProt Q14289)
RAF1 = RAF1 (UniProt P04049)
[1] = biological target: RAF1_S257L (clone: RAF1_mut) (UniProt P04049)
RET = RET (UniProt P07949)
[2] = biological target: RET_M918T (clone: RET_mut) (UniProt P07949)
RIOK1 = RIOK1 (UniProt Q9BRS2)
RIPK1 = RIPK1 (UniProt Q13546)
RIPK2 = RIPK2 (UniProt O43353)
ROR2 = ROR2 (UniProt Q01974)
RPS6KA1 = RPS6KA1 (UniProt Q15418)
SPHK1 = SPHK1 (UniProt Q9NYA1)
SRC = SRC (UniProt P12931)
STK24 = STK24 (UniProt Q9Y6E0)

Measured: kinase-Nluc reporter destabilization hit call

Cn1cc(C2=C(c3cn(CCCSC(=N)N)c4ccccc34)C(=O)NC2=O)c2ccccc21 [Ro 31-8220 (mesylate)] (2.5 µM)
inactive: PDPK1 = 0 | PIK4CA 0 | PIK4CB 0 | PLK1 = 0 | PRKAA1 = 0 | PRKCA 0 | PTK2 = 0 | PTK2B 0 | RAF1 = 0 | [1] 0 | RET 0 | [2] 0 | RIOK1 = 0 | RIPK1 = 0 | RIPK2 = 0 | ROR2 = 0 | RPS6KA1 = 0 | SPHK1 = 0 | SRC 0 | STK24 = 0

C=CC(=O)Nc1cccc(CNc2nc(Nc3ccc(N4CCN(C)CC4)cc3OC)ncc2Cl)c1 (10 µM)
inactive: PDPK1 = 0 | PIK4CA 0 | PIK4CB 0 | PLK1 = 0 | PRKAA1 = 0 | PRKCA 0 | PTK2 = 0 | PTK2B 0 | RAF1 = 0 | [1] 0 | RET 0 | [2] 0 | RIOK1 = 0 | RIPK1 = 0 | RIPK2 = 0 | ROR2 = 0 | RPS6KA1 = 0 | SPHK1 = 0 | SRC 0 | STK24 = 0

CCc1ccc(OCC(=O)Nc2ccc(F)c([N+](=O)[O-])c2)cc1 (10 µM)
inactive: PDPK1 = 0 | PIK4CA 0 | PIK4CB 0 | PLK1 = 0 | PRKAA1 = 0 | PRKCA 0 | PTK2 = 0 | PTK2B 0 | RAF1 = 0 | [1] 0 | RET 0 | [2] 0 | RIOK1 = 0 | RIPK1 = 0 | RIPK2 = 0 | ROR2 = 0 | RPS6KA1 = 0 | SPHK1 = 0 | SRC 0 | STK24 = 0

An excerpt from above in order of count of non-hydrogen atoms, rising:
CCc1ccc(OCC(=O)Nc2ccc(F)c([N+](=O)[O-])c2)cc1 (10 µM)
inactive: PDPK1 = 0 | PIK4CA 0 | PIK4CB 0 | PLK1 = 0 | PRKAA1 = 0 | PRKCA 0 | PTK2 = 0 | PTK2B 0 | RAF1 = 0 | [1] 0 | RET 0 | [2] 0 | RIOK1 = 0 | RIPK1 = 0 | RIPK2 = 0 | ROR2 = 0 | RPS6KA1 = 0 | SPHK1 = 0 | SRC 0 | STK24 = 0

Cn1cc(C2=C(c3cn(CCCSC(=N)N)c4ccccc34)C(=O)NC2=O)c2ccccc21 [Ro 31-8220 (mesylate)] (2.5 µM)
inactive: PDPK1 = 0 | PIK4CA 0 | PIK4CB 0 | PLK1 = 0 | PRKAA1 = 0 | PRKCA 0 | PTK2 = 0 | PTK2B 0 | RAF1 = 0 | [1] 0 | RET 0 | [2] 0 | RIOK1 = 0 | RIPK1 = 0 | RIPK2 = 0 | ROR2 = 0 | RPS6KA1 = 0 | SPHK1 = 0 | SRC 0 | STK24 = 0

C=CC(=O)Nc1cccc(CNc2nc(Nc3ccc(N4CCN(C)CC4)cc3OC)ncc2Cl)c1 (10 µM)
inactive: PDPK1 = 0 | PIK4CA 0 | PIK4CB 0 | PLK1 = 0 | PRKAA1 = 0 | PRKCA 0 | PTK2 = 0 | PTK2B 0 | RAF1 = 0 | [1] 0 | RET 0 | [2] 0 | RIOK1 = 0 | RIPK1 = 0 | RIPK2 = 0 | ROR2 = 0 | RPS6KA1 = 0 | SPHK1 = 0 | SRC 0 | STK24 = 0

Later entries

Cc1ccc(C(=O)Nc2sc(Nc3ccccc3)nc2C(N)=O)cc1 (10 µM)
inactive: PDPK1 = 0 | PIK4CA 0 | PIK4CB 0 | PLK1 = 0 | PRKAA1 = 0 | PRKCA 0 | PTK2 = 0 | PTK2B 0 | RAF1 = 0 | [1] 0 | RET 0 | [2] 0 | RIOK1 = 0 | RIPK1 = 0 | RIPK2 = 0 | ROR2 = 0 | RPS6KA1 = 0 | SPHK1 = 0 | SRC 0 | STK24 = 0

O=C(Nc1cccc(Nc2ncc(Br)c(NCCc3cnc[nH]3)n2)c1)N1CCCC1 (10 µM)
inactive: PDPK1 = 0 | PIK4CA 0 | PIK4CB 0 | PLK1 = 0 | PRKAA1 = 0 | PRKCA 0 | PTK2 = 0 | PTK2B 0 | RAF1 = 0 | [1] 0 | RET 0 | [2] 0 | RIOK1 = 0 | RIPK1 = 0 | RIPK2 = 0 | ROR2 = 0 | RPS6KA1 = 0 | SPHK1 = 0 | SRC 0 | STK24 = 0

Cn1cc2cc(C(F)(F)c3nnc4ccc(-c5cnn(C6CC6)c5)nn34)c(F)cc2n1 [Bozitinib] (10 µM)
inactive: PDPK1 = 0 | PIK4CA 0 | PIK4CB 0 | PLK1 = 0 | PRKAA1 = 0 | PRKCA 0 | PTK2 = 0 | PTK2B 0 | RAF1 = 0 | [1] 0 | RET 0 | [2] 0 | RIOK1 = 0 | RIPK1 = 0 | RIPK2 = 0 | ROR2 = 0 | RPS6KA1 = 0 | SPHK1 = 0 | SRC 0 | STK24 = 0

C[C@H](Nc1ncnc2nc[nH]c12)c1cc2cccc(Cl)c2c(=O)n1-c1ccccc1 [Duvelisib] (10 µM)
inactive: PDPK1 = 0 | PIK4CA 0 | PIK4CB 0 | PLK1 = 0 | PRKAA1 = 0 | PRKCA 0 | PTK2 = 0 | PTK2B 0 | RAF1 = 0 | [1] 0 | RET 0 | [2] 0 | RIOK1 = 0 | RIPK1 = 0 | RIPK2 = 0 | ROR2 = 0 | RPS6KA1 = 0 | SPHK1 = 0 | SRC 0 | STK24 = 0

COc1cc2ncnc(Nc3ccccc3)c2cc1OC (10 µM)
inactive: PDPK1 = 0 | PIK4CA 0 | PIK4CB 0 | PLK1 = 0 | PRKAA1 = 0 | PRKCA 0 | PTK2 = 0 | PTK2B 0 | RAF1 = 0 | [1] 0 | RET 0 | [2] 0 | RIOK1 = 0 | RIPK1 = 0 | RIPK2 = 0 | ROR2 = 0 | RPS6KA1 = 0 | SPHK1 = 0 | SRC 0 | STK24 = 0

C=CC(=O)Nc1cc(Nc2nccc(-n3cc(CN(C)C)c(-c4ccccc4)n3)n2)c(OC)cc1N1CCOCC1 [Lazertinib] (10 µM)
inactive: PDPK1 = 0 | PIK4CA 0 | PIK4CB 0 | PLK1 = 0 | PRKAA1 = 0 | PRKCA 0 | PTK2 = 0 | PTK2B 0 | RAF1 = 0 | [1] 0 | RET 0 | [2] 0 | RIOK1 = 0 | RIPK1 = 0 | RIPK2 = 0 | ROR2 = 0 | RPS6KA1 = 0 | SPHK1 = 0 | SRC 0 | STK24 = 0

CCOC(=O)N1C/C(=C/c2ccccc2F)C(=O)/C(=C\c2ccccc2F)C1 (2.5 µM)
inactive: PDPK1 = 0 | PIK4CA 0 | PIK4CB 0 | PLK1 = 0 | PRKAA1 = 0 | PRKCA 0 | PTK2 = 0 | PTK2B 0 | RAF1 = 0 | [1] 0 | RET 0 | [2] 0 | RIOK1 = 0 | RIPK1 = 0 | RIPK2 = 0 | ROR2 = 0 | RPS6KA1 = 0 | SPHK1 = 0 | SRC 0 | STK24 = 0

CCc1cncnc1N1CCN(Cc2nc3ccc(C(F)(F)F)cc3[nH]2)CC1 (10 µM)
inactive: PDPK1 = 0 | PIK4CA 0 | PIK4CB 0 | PLK1 = 0 | PRKAA1 = 0 | PRKCA 0 | PTK2 = 0 | PTK2B 0 | RAF1 = 0 | [1] 0 | RET 0 | [2] 0 | RIOK1 = 0 | RIPK1 = 0 | RIPK2 = 0 | ROR2 = 0 | RPS6KA1 = 0 | SPHK1 = 0 | SRC 0 | STK24 = 0

Cc1cc(Nc2nc(CC3(C(=O)O)CCN(C(=O)c4cccc(Cl)c4Cl)CC3)ccc2F)n[nH]1 (10 µM)
inactive: PDPK1 = 0 | PIK4CA 0 | PIK4CB 0 | PLK1 = 0 | PRKAA1 = 0 | PRKCA 0 | PTK2 = 0 | PTK2B 0 | RAF1 = 0 | [1] 0 | RET 0 | [2] 0 | RIOK1 = 0 | RIPK1 = 0 | RIPK2 = 0 | ROR2 = 0 | RPS6KA1 = 0 | SPHK1 = 0 | SRC 0 | STK24 = 0

Cn1cc(-c2c[nH]c3ncnc(N4CCOCC4)c23)cc1C#N (10 µM)
inactive: PDPK1 = 0 | PIK4CA 0 | PIK4CB 0 | PLK1 = 0 | PRKAA1 = 0 | PRKCA 0 | PTK2 = 0 | PTK2B 0 | RAF1 = 0 | [1] 0 | RET 0 | [2] 0 | RIOK1 = 0 | RIPK1 = 0 | RIPK2 = 0 | ROR2 = 0 | RPS6KA1 = 0 | SPHK1 = 0 | SRC 0 | STK24 = 0

N#CC(c1ccnc(OCc2ccc(CN3CCOCC3)cc2)n1)c1nc2ccccc2s1 (stereo not given) [Bentamapimod] (2.5 µM)
inactive: PDPK1 = 0 | PIK4CA 0 | PIK4CB 0 | PLK1 = 0 | PRKAA1 = 0 | PRKCA 0 | PTK2 = 0 | PTK2B 0 | RAF1 = 0 | [1] 0 | RET 0 | [2] 0 | RIOK1 = 0 | RIPK1 = 0 | RIPK2 = 0 | ROR2 = 0 | RPS6KA1 = 0 | SPHK1 = 0 | SRC 0 | STK24 = 0

NC(=O)c1cnc2[nH]ccc2c1N[C@@H]1[C@@H]2CC3C[C@H]1C[C@@](O)(C3)C2 [Peficitinib] (10 µM)
inactive: PDPK1 = 0 | PIK4CA 0 | PIK4CB 0 | PLK1 = 0 | PRKAA1 = 0 | PRKCA 0 | PTK2 = 0 | PTK2B 0 | RAF1 = 0 | [1] 0 | RET 0 | [2] 0 | RIOK1 = 0 | RIPK1 = 0 | RIPK2 = 0 | ROR2 = 0 | RPS6KA1 = 0 | SPHK1 = 0 | SRC 0 | STK24 = 0

Cn1cc(-c2cnc3cnn(S(=O)(=O)c4cnc5ccc(-c6cnn(C)c6)cn45)c3c2)cn1 [Glumetinib] (10 µM)
inactive: PDPK1 = 0 | PIK4CA 0 | PIK4CB 0 | PLK1 = 0 | PRKAA1 = 0 | PRKCA 0 | PTK2 = 0 | PTK2B 0 | RAF1 = 0 | [1] 0 | RET 0 | [2] 0 | RIOK1 = 0 | RIPK1 = 0 | RIPK2 = 0 | ROR2 = 0 | RPS6KA1 = 0 | SPHK1 = 0 | SRC 0 | STK24 = 0
